Measurements from PubChem BioAssay AID588590 (National Center for Advancing Translational Sciences (NCATS), 2011).
Among all 390,000 compounds or so, about 4,000 (1%) were called active. The shares of active, inactive and inconclusive entries below differ from those in the screen. Calls come from the whole dose curve; as a rule, active = well fitted inhibition curve with a large enough effect; inconclusive = small, poorly fitted or top-dose-only effect, or another doubt; inactive = no such curve, though single readings can be large or run the other way. Potencies of inconclusive entries are doubtful fits and often do not repeat.
Potency is the fitted concentration of half-maximal effect.

Chains of the proteins cited; added tags and fusions are not shown. Lines headed by an entry give the natural chain unless they say otherwise; changes in a name come on top.
UniProt Q9UNA4: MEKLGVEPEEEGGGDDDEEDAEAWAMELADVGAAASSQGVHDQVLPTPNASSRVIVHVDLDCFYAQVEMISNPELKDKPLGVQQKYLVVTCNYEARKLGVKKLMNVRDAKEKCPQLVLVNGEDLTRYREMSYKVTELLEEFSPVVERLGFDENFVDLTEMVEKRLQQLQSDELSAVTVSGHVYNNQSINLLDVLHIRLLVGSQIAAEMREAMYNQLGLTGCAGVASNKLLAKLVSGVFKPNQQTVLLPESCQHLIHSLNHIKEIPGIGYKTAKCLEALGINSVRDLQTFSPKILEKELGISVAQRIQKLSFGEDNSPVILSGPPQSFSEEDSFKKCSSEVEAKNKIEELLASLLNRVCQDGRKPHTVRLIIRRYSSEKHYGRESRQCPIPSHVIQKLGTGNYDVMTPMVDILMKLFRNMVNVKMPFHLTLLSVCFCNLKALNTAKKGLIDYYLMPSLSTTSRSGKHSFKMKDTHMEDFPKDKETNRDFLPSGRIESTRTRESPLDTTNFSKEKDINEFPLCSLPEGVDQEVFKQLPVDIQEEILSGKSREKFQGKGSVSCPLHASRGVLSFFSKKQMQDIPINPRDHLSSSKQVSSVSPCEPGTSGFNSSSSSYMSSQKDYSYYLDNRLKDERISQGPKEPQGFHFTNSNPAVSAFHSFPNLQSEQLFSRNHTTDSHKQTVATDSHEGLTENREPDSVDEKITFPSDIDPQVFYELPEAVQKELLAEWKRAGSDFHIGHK

These compounds were tested against DNA polymerase iota (Homo sapiens) (UniProt Q9UNA4) (assay: qHTS for Inhibitors of Polymerase Iota). Settings: Pol iota fluorescent replication assay, 10 min; series mostly up to 115 µM.
Outline: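 Fluorescent replication assay read twice, at 0 min and 10 min after adding 50 nM (final) substrate. Enzyme (10 nM) and compounds were first incubated 15 min at room temperature; enzyme-free buffer wells were negative controls.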
For `COc1cc(C(=S)N2CCOCC2)cc(OC)c1OC(=O)c1ccccc1[N+](=O)[O-]`, the Potency was inconclusive: 56.2 µM [inhibitor, partial curve, poor fit]. `COc1ccc(CCNC(=S)NC(=O)c2ccccc2)cc1C` was tested, and the Potency was inconclusive: 17.8 µM [inhibitor, partial curve, poor fit]. In the case of `CCc1ccc(NCc2cc3cc4c(cc3n(CC(=O)Nc3ccccc3C)c2=O)OCCO4)cc1`, the Potency is reported as inconclusive: 100 µM [inhibitor, single point]. `N#CCSc1nc2ccc(N3CCCCC3)cc2c(=O)n1Cc1ccccc1` was tested, and the Potency was inconclusive: 20 µM [inhibitor, partial curve, poor fit]. With `CC(=O)NC1=C(C#N)C(c2ccccc2)c2c(ccc3ccccc23)O1` (stereo not given) the Potency was inconclusive: 20 µM [inhibitor, partial curve, poor fit]. For `CCOc1ccc(NC(=O)Cn2nnc(-c3nc(-c4ccncc4)no3)c2N)cc1`, the Potency was “inactive”. `CCc1ccc(C(c2ccc(CC)cc2)C(Cl)Cl)cc1` was tested, and the Potency was “inactive”. In the case of `Cc1c(F)cccc1NC(=O)c1ccc2c(c1)CCN2S(C)(=O)=O`, the Potency is reported as “inactive”. For `COc1ccc([C@@H]2CC=C(C(=O)O)[C@H](c3ccc(Br)cc3)N2S(=O)(=O)c2ccc(C)cc2)cc1OC`, the Potency was inconclusive: 0.562 µM [inhibitor, full curve, poor fit]. With `C=C1C=C(C)n2ncc(C(=O)Nc3ccccc3O)c2N1` the Potency was inconclusive: 56.2 µM [inhibitor, partial curve, poor fit]. For `COCCNC(=O)C(=O)Nc1cc2c3c(c1)CCC(=O)N3CCC2`, the Potency was inconclusive: 50.1 µM [inhibitor, partial curve, poor fit]. `OC(C[n+]1c(Cl)ccc2ccccc21)c1ccccc1` (stereo not given) was tested, and the Potency was inconclusive: 25.1 µM [inhibitor, single point]. `Cc1nnc(SCC(=O)N2N=C(c3ccc(Cl)cc3)CC2c2ccco2)[nH]c1=O` (stereo not given) was tested, and the Potency was inconclusive: 10 µM [inhibitor, partial curve, poor fit]. In the case of `CCN(C(=O)COC(=O)c1c2c(nc3ccccc13)CCC2)c1c(N)n(Cc2ccccc2)c(=O)[nH]c1=O`, the Potency is reported as inconclusive: 50.1 µM [inhibitor, single point]. For `O=C(Cc1ccccc1)N/N=C/c1cc(Br)cc(Br)c1O`, the Potency was “inactive”. In the case of `Cc1ccccc1Nc1nn2c(=O)c3ccc(C(=O)NCc4cccs4)cc3nc2s1`, the Potency is reported as active: 79.4 µM. In the case of `COC(=O)c1ccc(C(=O)O)nc1`, the Potency is reported as inconclusive: 20 µM [inhibitor, partial curve]. In the case of `O=C(CCc1ccccc1)NC1CC(=O)N(c2cccc(F)c2)C1` (stereo not given), the Potency is reported as inconclusive: 100 µM [inhibitor, single point]. For `COc1ccccc1C(=O)n1nc(-c2ccccc2)nc1NCc1ccc(Cl)cc1`, the Potency was “inactive”. In the case of `COc1ccc(OCC(O)Cn2c(=N)n(CCN3CCCCC3)c3ccccc32)cc1` (stereo not given), the Potency is reported as inconclusive: 7.94 µM [inhibitor, single point]. In the case of `O=[N+]([O-])c1c(Nc2ccccn2)cc(Cl)c2nonc12`, the Potency is reported as inconclusive: 0.891 µM [inhibitor, full curve, poor fit]. In the case of `COc1ccc(C(=O)COC(=O)CN2C(=O)NC3(CC(C)CC(C)(C)C3)C2=O)c(OC)c1` (stereo not given), the Potency is reported as inconclusive: 79.4 µM [inhibitor, partial curve]. In the case of `CCCn1c(=O)c(C(=O)NCc2ccco2)c(O)c2ccccc21`, the Potency is reported as inconclusive: 79.4 µM [inhibitor, single point]. With `COc1cccc(NC(=O)C2CC(=O)N=C(N)S2)c1` (stereo not given) the Potency was inconclusive: 35.5 µM [inhibitor, single point]. `CC1CCCCC12NC(=O)N(CC(=O)c1ccc[nH]1)C2=O` (stereo not given) was tested, and the Potency was inconclusive: 22.4 µM [inhibitor, partial curve, poor fit]. In the case of `COc1ccc(S(=O)(=O)Nc2ccc3c(c2)n(C)c(=O)n3C)cc1`, the Potency is reported as inconclusive: 89.1 µM [inhibitor, single point]. With `O=C1NC(c2ccccc2Br)=N/C1=C\c1ccco1` the Potency was inconclusive: 11.2 µM [inhibitor, full curve, poor fit]. For `CS(=O)(=O)c1ncc(Cl)c(C(=O)Nc2ccc3ccccc3c2)n1`, the Potency was inconclusive: 50.1 µM [inhibitor, partial curve, poor fit]. For `COc1ccc(O)c(C(=O)C2c3ccccc3C(=O)N2c2ccc(C)cc2)c1` (stereo not given), the Potency was “inactive”. For `CCCS(=O)(=O)c1c(S(=O)(=O)CCC)c2c(N)cccn2c1C(=O)OC`, the Potency was inconclusive: 25.1 µM [inhibitor, single point]. In the case of `COc1ccc(OC)c(S(=O)(=O)N2CCN(c3ncccn3)CC2)c1`, the Potency is reported as inconclusive: 10 µM [inhibitor, partial curve, poor fit]. With `COc1ccc(N2Cc3ccccc3C2=O)cc1` the Potency was “inactive”. `CCOc1ccc(/C=C2\SC(=S)N(CCC(=O)Nc3cccc(C(=O)O)c3)C2=O)cc1` was tested, and the Potency was inconclusive: 31.6 µM [inhibitor, single point]. `CCOC(=O)C(Cc1ccccc1)NC(C)=O` (stereo not given) was tested, and the Potency was inconclusive: 31.6 µM [inhibitor, single point]. With `CC(C)(C)OC(=O)NCc1ccc(NC(=O)c2nc[nH]c2C(=O)N[C@@H](Cc2ccccc2)C(=O)OCc2ccccc2)cc1` the Potency was “inactive”. `COc1cc(/C=C/C(=O)C2C(=O)C=C(C)OC2=O)cc(OC)c1O` (stereo not given) was tested, and the Potency was inconclusive: 50.1 µM [inhibitor, partial curve]. `COc1ccc(-c2cc(=O)c3c(O)cc(O[C@@H]4O[C@H](CO[C@@H]5O[C@@H](C)[C@H](O)[C@@H](O)[C@H]5O)[C@@H](O)[C@H](O)[C@H]4O)cc3o2)cc1O` was tested, and the Potency was inconclusive: 2.82 µM [inhibitor, full curve, poor fit]. `O=C(CC(C(=O)O)n1ccnc1)c1ccc(Cl)cc1` (stereo not given) was tested, and the Potency was inconclusive: 8.91 µM [inhibitor, full curve, poor fit]. With `Cc1ccc(OCC(=O)Nc2ccc(N3CCN(C(=O)c4ccco4)CC3)cc2)c(C)c1` the Potency was inconclusive: 12.6 µM [inhibitor, full curve, poor fit]. `Cc1ccc(C(=O)N/N=C/c2c(O)ccc3ccccc23)cn1` was tested, and the Potency was inconclusive: 63.1 µM [inhibitor, single point].
